Hit rate of the full screen: of about 220,000 compounds, about 2,400 (1.1%) were called active. The inconclusive results got no clear call from the source; some entries with a clear call stand among them for comparison. Calls follow the shape of the dose curve; as a rule, active = well fitted inhibition curve with a large enough effect; inconclusive = small, poorly fitted or top-dose-only effect, or effect the other way; inactive = no such curve, though single readings can be large or run the other way. A potency beside an inconclusive call is a rough fit, not a confirmed value.
Test: qHTS Multiplex Assay to Identify Dual Action Probes in a Cell Model of Huntington: Aggregate Formation (GFP); also: nearly all actives have a fitted effect of over 60% in size
Conditions: PC12 HttQ103-GFP aggregates, Acumen cytometry, 40 h; activity change, negative = inhibition: at 46.1 µM (top of the series) unless noted
Outline: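 PC12 cells stably carrying ecdysone-inducible HTT exon 1 Q103–GFP were induced with tebufenozide (100 nM final) and treated with library compounds in titration. GFP aggregates in lysates were counted by laser scanning cytometry.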
% is scaled to controls: 0 for no effect and ±100 for the full control effect; potency is read from the fitted curve at half-maximal effect.

| SMILES | activity change, negative = inhibition | Potency |
| --- | --- | --- |
| O=S(=O)(NC1CCCCC1Nc1ccccc1)c1ccccc1 (stereo not given) | inactive: 11.2% |  |
| Cc1nnc(SCC(=O)Nc2ccccc2NC(=O)CSc2nnc(C)s2)s1 |  | inconclusive: 5.62 µM [activator, partial curve] |
| CN=c1scc(-c2ccccc2F)n1/N=C(\C)c1cccnc1 |  | inconclusive: 31.6 µM [inhibitor, single point] |
| CCOC(=O)c1ccc[n+](C(C)C(=O)c2ccc(-c3ccccc3)cc2)c1 (stereo not given) |  | inconclusive: 0.501 µM [inhibitor, partial curve] |
| O=C(CCCN1C(=O)/C(=C/c2ccco2)SC1=S)Nc1ccccc1 |  | active: 25.1 µM |
| Cc1cc(C)cc(OCC(=O)N/N=C/c2ccc([N+](=O)[O-])o2)c1 |  | inconclusive: 35.5 µM [inhibitor, single point] |
| CCOc1ccc(-n2c(SCc3ccc([N+](=O)[O-])cc3)nnc2-c2ccccc2)cc1 |  | active: 20 µM |
| COc1ccc(C(=O)N(NC(=O)Oc2ccccc2)C(C)(C)C)cc1 |  | inconclusive: 0.316 µM [inhibitor, partial curve] |
| COC(=O)CC1=C(C(=O)OC)C(c2ccncc2)C(C#N)=C(N)O1 (stereo not given) |  | inconclusive: 11.2 µM [activator, partial curve] |
| N#Cc1ccc(NC(=O)Nc2ccc(Oc3ccc(NC(=O)Nc4ccc(C#N)cc4)cc3)cc2)cc1 | inactive: -17.8% [at 9.22 µM] |  |
| O=C(NC12CC3CC(CC(C3)C1)C2)c1ccc(COc2ccc(Cl)cc2[N+](=O)[O-])o1 |  | inconclusive: 12.6 µM [inhibitor, single point] |
| O=C(NC1CCCc2ccccc21)C1CCN(S(=O)(=O)N2CCCCCC2)CC1 (stereo not given) | inactive: -20.5% |  |
| Cc1ccc(OCc2nnc(SCC(=O)CC(=O)Nc3ccccc3)o2)cc1 |  | inconclusive: 35.5 µM [inhibitor, single point] |
| CC1NC(=O)NC1CCCCCC(=O)NCCc1ccccc1 (stereo not given) | inactive: 6.48% |  |
| Cc1ccc(-c2cc(C(=O)N3CCCC3)no2)cc1 | inactive: 9.78% |  |
| C/C(=N\N=C(/N)SC1CC(=O)N(c2ccc(Cl)cc2)C1=O)c1cccs1 (stereo not given) | inactive: 1.44% |  |
| COc1ccc(N2CCN(C(=O)C3(C)CC3(Cl)Cl)CC2)cc1 (stereo not given) |  | inconclusive: 31.6 µM [activator, single point] |
| COC(=O)c1c(NC(=O)CSc2nc3ccccc3c(=O)n2-c2ccccc2)sc(C)c1C | inactive: 1.57% |  |
| Cc1ccc(S(=O)(=O)N2CCOCC2)cc1C(=O)Nc1ccc2c(c1)CCC2 | inactive: 8.83% |  |
| Nc1nonc1-c1nc2ccccc2n1CC(=O)N/N=C\c1ccc(-c2ccc(Cl)cc2)o1 |  | inconclusive: 35.5 µM [activator, single point] |

Part of the list above in a different format:
CN=c1scc(-c2ccccc2F)n1/N=C(\C)c1cccnc1
  Potency: inconclusive: 31.6 µM [inhibitor, single point]
N#Cc1ccc(NC(=O)Nc2ccc(Oc3ccc(NC(=O)Nc4ccc(C#N)cc4)cc3)cc2)cc1
  activity change, negative = inhibition: inactive: -17.8% [at 9.22 µM]

From PubChem BioAssay AID1688 (National Center for Advancing Translational Sciences (NCATS), 2009)
